At least one compound was matched to its structure with a doubt left.
System: MiaPaCa2 cells
Test: MTT cell toxicity / cell survival assay in MiaPaCa2 cells
Type: cell-based
Conditions: FIG. 3

## CNC(=O)[C@H](Cc1ccccc1)NC(=O)[C@H](CC(C)C)[C@H](CSc1cccs1)C(=O)NO [Batimastat]
  cell survival: decrease in cell survival
